The series can be described thus: Fluorescence of binder solution droplets on metal powder layer excited with 365 nm UV light. To be noted: droplet on layer of Rene 108 nickel alloy powder.

With `CCCN(CCO)c1nc(Nc2ccccc2)nc(Nc2ccc(/C=C/c3ccc(Nc4nc(Nc5ccccc5)nc(N(CCO)CCO)n4)cc3S(=O)(=O)[O-])c(S(=O)(=O)[O-])c2)n1.[Na+].[Na+]` [FB 28], the Fluorescence entry was “Quenched”.
Still for that read-out and setting: to `O=S(=O)([O-])c1cc(Nc2nc(CCO)nc(Nc3ccccc3)n2)ccc1/C=C/c1ccc(Nc2nc(NCO)nc(Nc3ccccc3)n2)cc1S(=O)(=O)[O-].[Na+].[Na+]` [FB 85] belongs “Quenched”; to `CCCN(CCC)c1nc(Nc2ccccc2)nc(Nc2ccc(/C=C/c3ccc(Cc4nc(Cc5ccccc5)nc(N(OCC)OCC)n4)cc3S(=O)(=O)[O-])c(S(=O)(=O)[O-])c2)n1.[Na+].[Na+]` [FB 113], “Quenched”.
For `O=S(=O)([O-])c1ccccc1C=Cc1ccc(-c2ccc(C=Cc3ccccc3S(=O)(=O)[O-])cc2)cc1.[Na+].[Na+]` [FB 351], the Fluorescence entry was “Bright, homogenous signal”. The Fluorescence result (listed as Sample H) was “bright, homogenous fluorescence”.

The record behind these values is patent US11673323B2, “Fluorescent binders for use in monitoring additive manufacturing processes” (General Electric Company, priority 2020, dated 2023).
